Results are given in words; binding and its absence hold for the method and conditions named. Binding seen in cells or lysates may run through a third protein. Some entries that bind do so weakly or less than the wild type. Values belong to the binder of their own block, whether it stands above or below them.
Assays:
[1] = molecular target: T1, JUNB (mouse (endogenous in CD4+ T cells)) (UniProt P09450); test: co-IP; lysates of CD4+ T cells cultured under Th17-polarizing conditions; precipitated with anti-JUNB and anti-c-JUN antibodies, immunoblot with anti-FRA1, anti-c-FOS and anti-FOSB
T1 sequence: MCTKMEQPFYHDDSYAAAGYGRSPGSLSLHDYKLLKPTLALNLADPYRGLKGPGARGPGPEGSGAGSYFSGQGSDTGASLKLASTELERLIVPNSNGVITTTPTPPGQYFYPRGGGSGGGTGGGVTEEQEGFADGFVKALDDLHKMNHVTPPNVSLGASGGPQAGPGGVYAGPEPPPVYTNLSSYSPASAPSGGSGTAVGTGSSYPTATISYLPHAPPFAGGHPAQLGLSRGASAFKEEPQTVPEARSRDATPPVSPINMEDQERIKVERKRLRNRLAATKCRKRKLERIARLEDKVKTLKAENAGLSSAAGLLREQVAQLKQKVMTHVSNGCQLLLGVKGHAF

Sequences of proteins named here, by UniProt entry; tags and fusion partners are left off.
UniProt P05627: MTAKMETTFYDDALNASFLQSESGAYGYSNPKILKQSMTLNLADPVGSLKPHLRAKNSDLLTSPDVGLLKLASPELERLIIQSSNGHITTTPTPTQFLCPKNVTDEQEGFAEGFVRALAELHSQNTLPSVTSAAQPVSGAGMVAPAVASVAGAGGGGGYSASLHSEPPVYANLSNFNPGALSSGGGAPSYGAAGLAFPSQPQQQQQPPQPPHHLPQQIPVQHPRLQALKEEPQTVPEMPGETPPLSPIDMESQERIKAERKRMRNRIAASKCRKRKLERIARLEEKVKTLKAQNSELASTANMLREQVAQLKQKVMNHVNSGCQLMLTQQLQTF
UniProt P42227: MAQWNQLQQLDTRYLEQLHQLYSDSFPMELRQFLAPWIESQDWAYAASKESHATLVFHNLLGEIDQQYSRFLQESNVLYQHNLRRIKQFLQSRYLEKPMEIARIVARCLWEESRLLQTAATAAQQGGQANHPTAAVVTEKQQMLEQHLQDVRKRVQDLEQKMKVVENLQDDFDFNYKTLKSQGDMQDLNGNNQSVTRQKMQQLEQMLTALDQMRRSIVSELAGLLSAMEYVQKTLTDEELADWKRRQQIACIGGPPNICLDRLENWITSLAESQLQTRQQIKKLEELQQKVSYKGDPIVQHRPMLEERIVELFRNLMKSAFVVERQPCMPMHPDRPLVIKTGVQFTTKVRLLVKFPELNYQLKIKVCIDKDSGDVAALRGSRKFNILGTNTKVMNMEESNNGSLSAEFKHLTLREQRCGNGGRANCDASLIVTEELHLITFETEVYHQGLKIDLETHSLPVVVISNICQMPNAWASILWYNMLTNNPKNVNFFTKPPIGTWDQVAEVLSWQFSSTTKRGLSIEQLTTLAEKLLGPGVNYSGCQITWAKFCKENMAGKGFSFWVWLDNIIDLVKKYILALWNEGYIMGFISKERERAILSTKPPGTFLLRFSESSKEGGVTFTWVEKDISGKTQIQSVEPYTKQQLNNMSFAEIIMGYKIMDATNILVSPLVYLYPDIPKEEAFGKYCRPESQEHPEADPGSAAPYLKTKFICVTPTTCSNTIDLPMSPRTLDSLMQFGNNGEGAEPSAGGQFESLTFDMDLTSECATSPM

[2] = molecular target: c-JUN (mouse (endogenous in CD4+ T cells)) (UniProt P05627); test: as above
[3] = molecular target: Signal transducer and activator of transcription 3 (STAT3), phosphorylated at Y705 (mouse (endogenous in CD4+ T cells)) (UniProt P42227); test: co-IP; lysates of CD4+ T cells cultured under Th0- or Th17-polarizing conditions for 3 days; precipitated with anti-phospho-STAT3^Y705 antibody, immunoblot with anti-phospho-FRA1 or anti-phospho-JUNB (the text tells the reverse: anti-FRA1 and anti-JUNB precipitation, STAT3 blot)

- binding [1]: binds
- binding [2]: no binding
B1: Fos-related antigen 1 (FRA1) (protein, UniProt P48755 1-273)
chain: MYRDYGEPGPSSGAGSPYGRPAQPPQAQAQTAQQQKFHLVPSIDSSSQELHWMVQPHFLGPTGYPRPLAYPQYSPPQPRPGVIRALGPPPGVRRRPCEQISPEEEERRRVRRERNKLAAAKCRNRRKELTDFLQAETDKLEDEKSGLQREIEELQKQKERLELVLEAHRPICKIPEGDKKDPGGSGSTSGASSPPAPGRPVPCISLSPGPVLEPEALHTPTLMTTPSLTPFTPSLVFTYPSTPEPCSSAHRKSSSSSGDPSSDPLGSPTLLAL

- binding [3]: binds
B2: phospho-FRA1 (protein, UniProt P48755 1-273)
chain: B1 chain
modifications: phosphorylated (detected with anti-phospho-FRA1 antibody; residue not stated)

- binding [3]: binds
B3: phospho-JUNB (protein, UniProt P09450 1-344)
chain: T1 sequence
modifications: phosphorylated (detected with anti-phospho-JUNB antibody; residue not stated)
